Where two headings read alike, the source gives them in different places.
Experiment: Odor description

Row | Structure (SMILES) | Odor description | Odor description (listed as (Z)-4-hepten-2-yl salicylate)
1 | CC/C=C\CCOC(=O)c1cccc(C)c1O [(Z)-3-Hexen-1-yl 2-hydroxy-3-methylbenzoate] | floral, balsamic, slightly green and watery | 
2 | CC/C=C\C(C)COC(=O)c1ccccc1O (centres unmarked) [(Z)-2-Methyl-3-hexen-1-yl salicylate] | floral, green, watery | 
3 | CCC#CCC(C)OC(=O)c1ccccc1O (centres unmarked) [4-Heptyn-2-yl salicylate] | white-floral scent reminiscent of certain lily species | 
4 | CC/C=C\CC(C)OC(=O)c1ccccc1O (centres unmarked) [(Z)-4-Hepten-2-yl salicylate] | crisp floral and green note reminiscent of aspects of certain lily species and frangipani | very crisp floral and green note reminiscent of aspects of certain lily species and frangipani
